Assay results published in PMC8717606.
Results are given in words; binding and its absence hold for the method and conditions named. In cells and extracts the contact can be indirect. A yes stands for co-enrichment or nearness to the bait. Other partners may have been found.

Sequences of proteins named here, by UniProt entry; tags and fusion partners are left off. A change or cut given only in a name is not applied to a line headed by its entry.
UniProt P24001: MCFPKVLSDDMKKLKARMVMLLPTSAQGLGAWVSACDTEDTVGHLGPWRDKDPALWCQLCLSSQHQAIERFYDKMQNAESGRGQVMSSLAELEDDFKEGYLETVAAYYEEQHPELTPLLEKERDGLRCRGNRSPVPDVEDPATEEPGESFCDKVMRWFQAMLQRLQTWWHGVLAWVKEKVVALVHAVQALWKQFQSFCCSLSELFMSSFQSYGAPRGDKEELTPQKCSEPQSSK

B1: Probable phospholipid-transporting ATPase IIB (protein, UniProt O43861-1 1-1147)
chain: MADQIPLYPVRSAAAAAANRKRAAYYSAAGPRPGADRHSRYQLEDESAHLDEMPLMMSEEGFENEESDYHTLPRARIMQRKRGLEWFVCDGWKFLCTSCCGWLINICRRKKELKARTVWLGCPEKCEEKHPRNSIKNQKYNVFTFIPGVLYEQFKFFLNLYFLVISCSQFVPALKIGYLYTYWAPLGFVLAVTMTREAIDEFRRFQRDKEVNSQLYSKLTVRGKVQVKSSDIQVGDLIIVEKNQRIPSDMVFLRTSEKAGSCFIRTDQLDGETDWKLKVAVSCTQQLPALGDLFSISAYVYAQKPQMDIHSFEGTFTREDSDPPIHESLSIENTLWASTIVASGTVIGVVIYTGKETRSVMNTSNPKNKVGLLDLELNRLTKALFLALVALSIVMVTLQGFVGPWYRNLFRFLLLFSYIIPISLRVNLDMGKAVYGWMMMKDENIPGTVVRTSTIPEELGRLVYLLTDKTGTLTQNEMIFKRLHLGTVSYGADTMDEIQSHVRDSYSQMQSQAGGNNTGSTPLRKAQSSAPKVRKSVSSRIHEAVKAIVLCHNVTPVYESRAGVTEETEFAEADQDFSDENRTYQASSPDEVALVQWTESVGLTLVSRDLTSMQLKTPSGQVLSFCILQLFPFTSESKRMGVIVRDESTAEITFYMKGADVAMSPIVQYNDWLEEECGNMAREGLRTLVVAKKALTEEQYQDFESRYTQAKLSMHDRSLKVAAVVESLEREMELLCLTGVEDQLQADVRPTLEMLRNAGIKIWMLTGDKLETATCIAKSSHLVSRTQDIHIFRQVTSRGEAHLELNAFRRKHDCALVISGDSLEVCLKYYEHEFVELACQCPAVVCCRCSPTQKARIVTLLQQHTGRRTCAIGDGGNDVSMIQAADCGIGIEGKEGKQASLAADFSITQFRHIGRLLMVHGRNSYKRSAALGQFVMHRGLIISTMQAVFSSVFYFASVPLYQGFLMVGYATIYTMFPVFSLVLDQDVKPEMAMLYPELYKDLTKGRSLSFKTFLIWVLISIYQGGILMYGALVLFESEFVHVVAISFTALILTELLMVALTVRTWHWLMVVAEFLSLGCYVSSLAFLNEYFGIGRVSFGAFLDVAFITTVTFLWKVSAITVVSCLPLYVLKYLRRKLSPPSYCKLAS
B2: Desmocollin-1 (protein, UniProt Q08554-1 135-894)
chain: RWAPIPASLMENSLGPFPQHVQQIQSDAAQNYTIFYSISGPGVDKEPFNLFYIEKDTGDIFCTRSIDREKYEQFALYGYATTADGYAPEYPLPLIIKIEDDNDNAPYFEHRVTIFTVPENCRSGTSVGKVTATDLDEPDTLHTRLKYKILQQIPDHPKHFSIHPDTGVITTTTPFLDREKCDTYQLIMEVRDMGGQPFGLFNTGTITISLEDENDNPPSFTETSYVTEVEENRIDVEILRMKVQDQDLPNTPHSKAVYKILQGNENGNFIISTDPNTNEGVLCVVKPLNYEVNRQVILQVGVINEAQFSKAASSQTPTMCTTTVTVKIIDSDEGPECHPPVKVIQSQDGFPAGQELLGYKALDPEISSGEGLRYQKLGDEDNWFEINQHTGDLRTLKVLDRESKFVKNNQYNISVVAVDAVGRSCTGTLVVHLDDYNDHAPQIDKEVTICQNNEDFAVLKPVDPDGPENGPPFQFFLDNSASKNWNIEEKDGKTAILRQRQNLDYNYYSVPIQIKDRHGLVATHMLTVRVCDCSTPSECRMKDKSTRDVRPNVILGRWAILAMVLGSVLLLCILFTCFCVTAKRTVKKCFPEDIAQQNLIVSNTEGPGEEVTEANIRLPMQTSNICDTSMSVGTVGGQGIKTQQSFEMVKGGYTLDSNKGGGHQTLESVKGVGQGDTGRYAYTDWQSFTQPRLGEKVYLCGQDEEHKHCEDYVCSYNYEGKGSLAGSVGCCSDRQEEEGLEFLDHLEPKFRTLAKTCIKK
B3: Phosphatidylcholine:ceramide cholinephosphotransferase 1 (protein, UniProt Q86VZ5-1 1-413)
chain: MKEVVYWSPKKVADWLLENAMPEYCEPLEHFTGQDLINLTQEDFKKPPLCRVSSDNGQRLLDMIETLKMEHHLEAHKNGHANGHLNIGVDIPTPDGSFSIKIKPNGMPNGYRKEMIKIPMPELERSQYPMEWGKTFLAFLYALSCFVLTTVMISVVHERVPPKEVQPPLPDTFFDHFNRVQWAFSICEINGMILVGLWLIQWLLLKYKSIISRRFFCIVGTLYLYRCITMYVTTLPVPGMHFNCSPKLFGDWEAQLRRIMKLIAGGGLSITGSHNMCGDYLYSGHTVMLTLTYLFIKEYSPRRLWWYHWICWLLSVVGIFCILLAHDHYTVDVVVAYYITTRLFWWYHTMANQQVLKEASQMNLLARVWWYRPFQYFEKNVQGIVPRSYHWPFPWPVVHLSRQVKYSRLVNDT
B4: Syntaxin 6 (STX6) (protein, UniProt O43752 1-255)
chain: MSMEDPFFVVKGEVQKAVNTAQGLFQRWTELLQDPSTATREEIDWTTNELRNNLRSIEWDLEDLDETISIVEANPRKFNLDATELSIRKAFITSTRQVVRDMKDQMSTSSVQALAERKNRQALLGDSGSQNWSTGTTDKYGRLDRELQRANSHFIEEQQAQQQLIVEQQDEQLELVSGSIGVLKNMSQRIGGELEEQAVMLEDFSHELESTQSRLDNVMKKLAKVSHMTSDRRQWCAIAILFAVLLVVLILFLVL
B5: Solute carrier family 12 member 9 (protein, UniProt Q9BXP2-1 1-914)
chain: MASESSPLLAYRLLGEEGVALPANGAGGPGGASARKLSTFLGVVVPTVLSMFSIVVFLRIGFVVGHAGLLQALAMLLVAYFILALTVLSVCAIATNGAVQGGGAYFMISRTLGPEVGGSIGLMFYLANVCGCAVSLLGLVESVLDVFGADATGPSGLRVLPQGYGWNLLYGSLLLGLVGGVCTLGAGLYARASFLTFLLVSGSLASVLISFVAVGPRDIRLTPRPGPNGSSLPPRFGHFTGFNSSTLKDNLGAGYAEDYTTGAVMNFASVFAVLFNGCTGIMAGANMSGELKDPSRAIPLGTIVAVAYTFFVYVLLFFLSSFTCDRTLLQEDYGFFRAISLWPPLVLIGIYATALSASMSSLIGASRILHALARDDLFGVILAPAKVVSRGGNPWAAVLYSWGLVQLVLLAGKLNTLAAVVTVFYLVAYAAVDLSCLSLEWASAPNFRPTFSLFSWHTCLLGVASCLLMMFLISPGAAGGSLLLMGLLAALLTARGGPSSWGYVSQALLFHQVRKYLLRLDVRKDHVKFWRPQLLLLVGNPRGALPLLRLANQLKKGGLYVLGHVTLGDLDSLPSDPVQPQYGAWLSLVDRAQVKAFVDLTLSPSVRQGAQHLLRISGLGGMKPNTLVLGFYDDAPPQDHFLTDPAFSEPADSTREGSSPALSTLFPPPRAPGSPRALNPQDYVATVADALKMNKNVVLARASGALPPERLSRGSGGTSQLHHVDVWPLNLLRPRGGPGYVDVCGLFLLQMATILGMVPAWHSARLRIFLCLGPREAPGAAEGRLRALLSQLRIRAEVQEVVWGEGAGAGEPEAEEEGDFVNSGRGDAEAEALARSANALVRAQQGRGTGGGPGGPEGGDAEGPITALTFLYLPRPPADPARYPRYLALLETLTRDLGPTLLVHGVTPVTCTDL
B6: Zinc metallopeptidase STE24 (ZMPSTE24) (protein, UniProt O75844 1-475)
chain: MGMWASLDALWEMPAEKRIFGAVLLFSWTVYLWETFLAQRQRRIYKTTTHVPPELGQIMDSETFEKSRLYQLDKSTFSFWSGLYSETEGTLILLFGGIPYLWRLSGRFCGYAGFGPEYEITQSLVFLLLATLFSALTGLPWSLYNTFVIEEKHGFNQQTLGFFMKDAIKKFVVTQCILLPVSSLLLYIIKIGGDYFFIYAWLFTLVVSLVLVTIYADYIAPLFDKFTPLPEGKLKEEIEVMAKSIDFPLTKVYVVEGSKRSSHSNAYFYGFFKNKRIVLFDTLLEEYSVLNKDIQEDSGMEPRNEEEGNSEEIKAKVKNKKQGCKNEEVLAVLGHELGHWKLGHTVKNIIISQMNSFLCFFLFAVLIGRKELFAAFGFYDSQPTLIGLLIIFQFIFSPYNEVLSFCLTVLSRRFEFQADAFAKKLGKAKDLYSALIKLNKDNLGFPVSDWLFSMWHYSHPPLLERLQALKTMKQH
B7: Signal recognition particle 72 (SRP72) (protein, UniProt O76094 1-671)
chain: MASGGSGGVSVPALWSEVNRYGQNGDFTRALKTVNKILQINKDDVTALHCKVVCLIQNGSFKEALNVINTHTKVLANNSLSFEKAYCEYRLNRIENALKTIESANQQTDKLKELYGQVLYRLERYDECLAVYRDLVRNSQDDYDEERKTNLSAVVAAQSNWEKVVPENLGLQEGTHELCYNTACALIGQGQLNQAMKILQKAEDLCRRSLSEDTDGTEEDPQAELAIIHGQMAYILQLQGRTEEALQLYNQIIKLKPTDVGLLAVIANNIITINKDQNVFDSKKKVKLTNAEGVEFKLSKKQLQAIEFNKALLAMYTNQAEQCRKISASLQSQSPEHLLPVLIQAAQLCREKQHTKAIELLQEFSDQHPENAAEIKLTMAQLKISQGNISKACLILRSIEELKHKPGMVSALVTMYSHEEDIDSAIEVFTQAIQWYQNHQPKSPAHLSLIREAANFKLKYGRKKEAISDLQQLWKQNPKDIHTLAQLISAYSLVDPEKAKALSKHLPSSDSMSLKVDVEALENSAGATYIRKKGGKVTGDSQPKEQGQGDLKKKKKKKKGKLPKNYDPKVTPDPERWLPMRERSYYRGRKKGKKKDQIGKGTQGATAGASSELDASKTVSSPPTSPRPGSAATVSASTSNIIPPRHQKPAGAPATKKKQQQKKKKGGKGGW
B8: Mannose-6-phosphate receptor, cation dependent (M6PR) (protein, UniProt P20645 27-277)
chain: TEEKTCDLVGEKGKESEKELALVKRLKPLFNKSFESTVGQGSDTYIYIFRVCREAGNHTSGAGLVQINKSNGKETVVGRLNETHIFNGSNWIMLIYKGGDEYDNHCGKEQRRAVVMISCNRHTLADNFNPVSEERGKVQDCFYLFEMDSSLACSPEISHLSVGSILLVTFASLVAVYVVGGFLYQRLVVGAKGMEQFPHLAFWQDLGNLVADGCDFVCRSKPRNVPAAYRGVGDDQLGEESEERDDHLLPM

What follows are binders tested against Interleukin 32 (IL32) (Homo sapiens) (UniProt P24001) (assay: affinity purification with mass spectrometry; endogenous IL-32 precipitated with IL-32 antibody (R&D) coupled to M-270 Dynabeads from pre-cleared lysates (1% CHAPS, 50 mM Tris, 150 mM NaCl) of JJN-3 cells kept 24 h in hypoxia (2% O2); 2 h at 4°C, 4 washes with PBS; IL-32 KO cells as control; 5 replicates).

binding, binds:
B1
B2
B3
B4
B5
B6
B7
B8
